Laboratory results: PubChem BioAssay AID743454 (Peter MacCallum Cancer Centre, 2014)
Test: 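Knock-downs lowering viability or raising caspase 3/7 activity in vorinostat-treated resistant cells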 (primary screen). System: human HCT116-VR colon cancer cells, selected for vorinostat resistance. Knock-down reagent: siRNA pool against human genes, 40 nM siRNA pool. Duration: vorinostat for 24 h, read-out about 72 h after transfection. Challenge: vorinostat at 2.5 µM final. Measured: 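Cell viability by CellTiter-Fluor and caspase 3/7 activity by luminescence, each scaled to mock wells per plate, duplicates averaged, then robust z-scored over all plates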. Scale: viability robust z-score: higher = more viable cells than screen typical; caspase robust z-score: higher = more caspase 3/7 activity than screen typical. Hit rule: 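Hits are knock-downs in viability class RV1/RV2 or caspase class CA1/CA2, excluding ones that killed cells in the no-drug cell-count arm; hits then retested with single siRNAs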.
The deposit covers about 18,000 reagents; below is an unselected part. 450 of all reagents (2.5%) were called active. 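Single biological run; no consistent viability z cut-off exists, so the class columns, not z-scores, define the calls.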 The numbers tell different reagents against one gene apart. Reagent sequences are not shown.

target gene | pool no. | viability hit class | caspase hit class | viability robust z-score | caspase robust z-score | Call
RNF26 | 1 | no change | CA2 (caspase activation) | -2.7 | 14.1 | active
CCSAP | 1 | no change | no change | -0.09 | -0.48 | inactive
FBXO21 | 1 | no change | no change | -0.1 | 0.7 | inactive
FABP7 | 1 | no change | no change | -0.25 | 1.34 | inactive
OR52E4 | 1 | no change | no change | -0.98 | 1.75 | inactive
LRP5L | 1 | no change | no change | -0.99 | -0.85 | inactive
LRRC32 | 1 | no change | no change | -0.38 | 2.22 | inactive
RPL35A | 1 | no change | no change | -5.31 | -1.24 | inactive
DSCAML1 | 1 | no change | no change | -0.74 | 0.88 | inactive
OR6C1 | 1 | no change | no change | -1.12 | -0.79 | inactive
MUC13 | 1 | no change | no change | 0.58 | 0.49 | inactive
PAK5 | 1 | no change | no change | -0.44 | 1.12 | inactive
OR52R1 | 1 | no change | no change | -0.54 | -0.84 | inactive
AGER | 1 | no change | no change | 1.24 | 3.25 | inactive

Already shown: 4 of the entries above.
target gene | pool no. | viability hit class | caspase hit class | viability robust z-score | caspase robust z-score | Call
LRP5L | 1 | no change | no change | -0.99 | -0.85 | inactive
LRRC32 | 1 | no change | no change | -0.38 | 2.22 | inactive
RPL35A | 1 | no change | no change | -5.31 | -1.24 | inactive
DSCAML1 | 1 | no change | no change | -0.74 | 0.88 | inactive

The results go on.
target gene | pool no. | viability hit class | caspase hit class | viability robust z-score | caspase robust z-score | Call
TUBA3D | 1 | no change | no change | 0.02 | 0.1 | inactive
SERP1 | 1 | no change | no change | -0.93 | 0.8 | inactive
OR5J2 | 1 | no change | no change | 0.05 | -0.74 | inactive
CNIH4 | 1 | no change | no change | 0.36 | -0.25 | inactive
SLAIN1 | 1 | no change | no change | -0.66 | -0.1 | inactive
CBL | 1 | no change | no change | -0.12 | 0.82 | inactive
BBLN | 1 | no change | no change | -0.32 | -0.2 | inactive
MYCBP2 | 1 | no change | no change | -0.39 | 1.11 | inactive
NOTUM | 1 | no change | no change | -0.14 | -0.88 | inactive
SYPL1 | 1 | no change | no change | -0.05 | -0.81 | inactive
PSMB3 | 1 | no change | no change | -3.65 | 1.73 | inactive
S1PR3 | 1 | no change | no change | -1.21 | 1.86 | inactive
S1PR3 | 2 | no change | no change | 0.44 | 3 | inactive
NEUROD6 | 1 | no change | no change | -1.25 | 2.51 | inactive
SNX31 | 1 | no change | no change | -0.73 | 1.92 | inactive
NUP210 | 1 | no change | no change | 0.68 | -0.54 | inactive
PSMB6 | 1 | no change | no change | -5.9 | 2.83 | inactive
NUDT17 | 1 | no change | no change | 0.94 | -0.9 | inactive
IL9 | 1 | no change | no change | 0.34 | 0.22 | inactive
APOO | 1 | no change | no change | -1.02 | 0.97 | inactive
F5 | 1 | no change | no change | 1.16 | -0.44 | inactive
CCDC88B | 1 | no change | no change | 0.74 | -0.78 | inactive
ZNF549 | 1 | no change | no change | -1.1 | -0.8 | inactive
ABCC4 | 1 | no change | no change | -1.61 | 3.12 | inactive
OR2C3 | 1 | no change | no change | 0.53 | -0.42 | inactive
